Consider 15 substances from PMC6346685.

By UniProt entry, the sequences of proteins in these tests, tags left out. Residues count along the entry.
UniProt P01275, residues 53-81: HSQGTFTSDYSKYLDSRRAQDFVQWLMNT
UniProt Q03265, residues 44-553: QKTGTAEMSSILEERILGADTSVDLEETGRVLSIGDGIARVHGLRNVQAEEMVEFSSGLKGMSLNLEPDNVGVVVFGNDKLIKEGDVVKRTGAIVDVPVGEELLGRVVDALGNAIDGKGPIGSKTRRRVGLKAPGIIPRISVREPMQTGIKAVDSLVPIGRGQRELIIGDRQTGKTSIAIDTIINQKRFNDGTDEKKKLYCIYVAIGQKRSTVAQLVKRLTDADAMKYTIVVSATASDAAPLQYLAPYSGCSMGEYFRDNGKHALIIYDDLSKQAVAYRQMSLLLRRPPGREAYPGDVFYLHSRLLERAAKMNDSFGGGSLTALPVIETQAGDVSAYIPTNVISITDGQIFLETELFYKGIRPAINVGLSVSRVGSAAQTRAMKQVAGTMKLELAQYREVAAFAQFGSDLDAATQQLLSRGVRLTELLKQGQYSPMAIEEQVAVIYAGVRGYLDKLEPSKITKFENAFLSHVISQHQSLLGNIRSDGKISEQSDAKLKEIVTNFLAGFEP
UniProt Q64430: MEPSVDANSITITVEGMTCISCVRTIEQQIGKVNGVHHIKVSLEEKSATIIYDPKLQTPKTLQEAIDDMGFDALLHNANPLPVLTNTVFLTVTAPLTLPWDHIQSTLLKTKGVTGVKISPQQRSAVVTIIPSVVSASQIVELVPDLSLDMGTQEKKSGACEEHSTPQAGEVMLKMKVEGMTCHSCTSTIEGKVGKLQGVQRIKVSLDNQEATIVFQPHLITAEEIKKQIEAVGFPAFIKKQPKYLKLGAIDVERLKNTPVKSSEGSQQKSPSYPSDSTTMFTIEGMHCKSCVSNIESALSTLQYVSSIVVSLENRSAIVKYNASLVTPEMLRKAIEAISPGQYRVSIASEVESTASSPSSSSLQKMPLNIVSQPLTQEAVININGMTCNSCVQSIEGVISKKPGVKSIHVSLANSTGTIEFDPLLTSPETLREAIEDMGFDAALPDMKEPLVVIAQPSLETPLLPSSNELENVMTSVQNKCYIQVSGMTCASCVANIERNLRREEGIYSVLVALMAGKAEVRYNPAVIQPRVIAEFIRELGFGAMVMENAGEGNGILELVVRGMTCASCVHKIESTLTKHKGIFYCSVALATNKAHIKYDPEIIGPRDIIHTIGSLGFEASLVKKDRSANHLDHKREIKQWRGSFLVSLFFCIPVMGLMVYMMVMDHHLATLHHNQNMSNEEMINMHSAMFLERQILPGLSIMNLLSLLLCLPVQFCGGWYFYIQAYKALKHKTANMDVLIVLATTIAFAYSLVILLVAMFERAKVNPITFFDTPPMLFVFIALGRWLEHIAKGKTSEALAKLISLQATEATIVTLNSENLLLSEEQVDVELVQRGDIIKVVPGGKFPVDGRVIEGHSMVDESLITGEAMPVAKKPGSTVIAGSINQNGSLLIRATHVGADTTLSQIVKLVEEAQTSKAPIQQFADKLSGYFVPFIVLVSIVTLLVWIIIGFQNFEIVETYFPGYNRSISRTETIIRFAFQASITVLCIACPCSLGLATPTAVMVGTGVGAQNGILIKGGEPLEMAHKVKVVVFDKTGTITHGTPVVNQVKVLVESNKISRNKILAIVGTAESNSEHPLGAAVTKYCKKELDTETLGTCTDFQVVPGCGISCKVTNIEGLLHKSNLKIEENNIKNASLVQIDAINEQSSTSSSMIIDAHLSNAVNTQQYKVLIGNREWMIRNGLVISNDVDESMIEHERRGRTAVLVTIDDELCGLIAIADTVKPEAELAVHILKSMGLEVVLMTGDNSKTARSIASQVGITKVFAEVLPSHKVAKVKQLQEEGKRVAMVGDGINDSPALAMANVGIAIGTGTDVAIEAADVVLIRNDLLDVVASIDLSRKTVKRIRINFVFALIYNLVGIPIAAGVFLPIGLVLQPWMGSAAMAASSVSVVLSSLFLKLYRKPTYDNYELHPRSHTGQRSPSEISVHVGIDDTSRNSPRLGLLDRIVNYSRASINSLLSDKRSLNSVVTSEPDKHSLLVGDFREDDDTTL
UniProt P48036: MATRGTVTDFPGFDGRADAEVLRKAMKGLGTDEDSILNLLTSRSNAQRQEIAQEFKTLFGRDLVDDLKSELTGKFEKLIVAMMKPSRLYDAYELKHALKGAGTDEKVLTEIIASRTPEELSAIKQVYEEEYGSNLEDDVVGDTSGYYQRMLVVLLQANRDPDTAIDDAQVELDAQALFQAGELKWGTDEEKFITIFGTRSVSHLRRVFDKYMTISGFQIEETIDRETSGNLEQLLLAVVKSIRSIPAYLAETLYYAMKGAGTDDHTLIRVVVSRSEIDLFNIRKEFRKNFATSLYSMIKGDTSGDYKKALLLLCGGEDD
UniProt Q61016: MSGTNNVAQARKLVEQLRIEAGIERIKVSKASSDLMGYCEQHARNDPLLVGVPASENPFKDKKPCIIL
UniProt P17879: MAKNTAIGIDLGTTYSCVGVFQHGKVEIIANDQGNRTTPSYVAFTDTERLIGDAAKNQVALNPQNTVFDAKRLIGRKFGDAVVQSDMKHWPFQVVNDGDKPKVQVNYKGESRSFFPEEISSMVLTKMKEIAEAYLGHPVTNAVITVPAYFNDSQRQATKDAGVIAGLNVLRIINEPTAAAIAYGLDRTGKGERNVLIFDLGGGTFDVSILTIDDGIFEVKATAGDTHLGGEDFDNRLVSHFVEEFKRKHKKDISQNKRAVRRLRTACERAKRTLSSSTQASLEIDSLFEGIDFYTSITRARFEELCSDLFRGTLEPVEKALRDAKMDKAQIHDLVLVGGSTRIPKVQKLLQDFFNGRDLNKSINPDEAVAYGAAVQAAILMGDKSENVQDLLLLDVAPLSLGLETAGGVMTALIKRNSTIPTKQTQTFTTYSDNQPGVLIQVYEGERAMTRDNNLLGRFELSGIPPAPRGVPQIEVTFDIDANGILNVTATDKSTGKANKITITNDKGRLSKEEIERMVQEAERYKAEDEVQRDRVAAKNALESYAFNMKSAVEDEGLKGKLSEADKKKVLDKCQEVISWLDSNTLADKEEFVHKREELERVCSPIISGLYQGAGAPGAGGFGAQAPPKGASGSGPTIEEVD
UniProt P09103, residues 20-509: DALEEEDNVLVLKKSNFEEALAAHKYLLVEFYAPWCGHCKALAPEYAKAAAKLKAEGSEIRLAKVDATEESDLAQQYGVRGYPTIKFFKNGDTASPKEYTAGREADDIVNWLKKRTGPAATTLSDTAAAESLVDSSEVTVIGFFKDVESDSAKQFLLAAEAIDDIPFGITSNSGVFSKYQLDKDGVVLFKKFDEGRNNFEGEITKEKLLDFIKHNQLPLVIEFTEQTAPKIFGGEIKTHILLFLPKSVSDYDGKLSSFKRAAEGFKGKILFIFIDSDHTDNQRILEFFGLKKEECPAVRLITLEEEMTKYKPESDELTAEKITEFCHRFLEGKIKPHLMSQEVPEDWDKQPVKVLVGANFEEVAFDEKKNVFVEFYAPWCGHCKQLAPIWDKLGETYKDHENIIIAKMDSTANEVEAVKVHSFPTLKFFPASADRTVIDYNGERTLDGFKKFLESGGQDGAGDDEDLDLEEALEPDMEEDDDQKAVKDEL
UniProt P53994: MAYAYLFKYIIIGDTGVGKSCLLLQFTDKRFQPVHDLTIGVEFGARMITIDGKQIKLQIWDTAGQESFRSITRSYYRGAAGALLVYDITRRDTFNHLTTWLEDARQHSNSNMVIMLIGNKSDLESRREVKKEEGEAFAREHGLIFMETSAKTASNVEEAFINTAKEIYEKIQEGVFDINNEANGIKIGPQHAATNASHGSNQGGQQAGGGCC
UniProt Q9QUI0: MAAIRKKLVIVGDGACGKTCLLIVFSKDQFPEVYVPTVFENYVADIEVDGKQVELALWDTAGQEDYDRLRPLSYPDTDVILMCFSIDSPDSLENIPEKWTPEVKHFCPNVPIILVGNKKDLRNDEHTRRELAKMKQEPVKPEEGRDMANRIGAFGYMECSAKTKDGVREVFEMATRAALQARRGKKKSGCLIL
UniProt P20029, residues 20-655: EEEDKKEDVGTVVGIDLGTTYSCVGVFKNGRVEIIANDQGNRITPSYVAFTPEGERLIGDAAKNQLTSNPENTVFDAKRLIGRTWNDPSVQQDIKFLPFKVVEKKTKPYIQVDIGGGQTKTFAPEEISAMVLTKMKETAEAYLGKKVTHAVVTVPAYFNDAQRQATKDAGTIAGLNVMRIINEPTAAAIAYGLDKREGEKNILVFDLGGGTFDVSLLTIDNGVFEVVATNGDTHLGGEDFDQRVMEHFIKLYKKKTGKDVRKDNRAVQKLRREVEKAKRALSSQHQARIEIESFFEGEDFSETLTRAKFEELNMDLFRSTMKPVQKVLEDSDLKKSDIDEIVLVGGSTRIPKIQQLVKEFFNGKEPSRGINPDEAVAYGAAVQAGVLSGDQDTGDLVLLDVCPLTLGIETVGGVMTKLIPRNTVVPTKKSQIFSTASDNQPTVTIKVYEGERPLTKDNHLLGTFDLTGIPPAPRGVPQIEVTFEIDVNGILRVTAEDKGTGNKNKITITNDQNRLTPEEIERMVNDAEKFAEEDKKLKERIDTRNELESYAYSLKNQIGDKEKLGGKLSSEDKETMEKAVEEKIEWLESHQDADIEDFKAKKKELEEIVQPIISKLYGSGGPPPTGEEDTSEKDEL
UniProt P20357: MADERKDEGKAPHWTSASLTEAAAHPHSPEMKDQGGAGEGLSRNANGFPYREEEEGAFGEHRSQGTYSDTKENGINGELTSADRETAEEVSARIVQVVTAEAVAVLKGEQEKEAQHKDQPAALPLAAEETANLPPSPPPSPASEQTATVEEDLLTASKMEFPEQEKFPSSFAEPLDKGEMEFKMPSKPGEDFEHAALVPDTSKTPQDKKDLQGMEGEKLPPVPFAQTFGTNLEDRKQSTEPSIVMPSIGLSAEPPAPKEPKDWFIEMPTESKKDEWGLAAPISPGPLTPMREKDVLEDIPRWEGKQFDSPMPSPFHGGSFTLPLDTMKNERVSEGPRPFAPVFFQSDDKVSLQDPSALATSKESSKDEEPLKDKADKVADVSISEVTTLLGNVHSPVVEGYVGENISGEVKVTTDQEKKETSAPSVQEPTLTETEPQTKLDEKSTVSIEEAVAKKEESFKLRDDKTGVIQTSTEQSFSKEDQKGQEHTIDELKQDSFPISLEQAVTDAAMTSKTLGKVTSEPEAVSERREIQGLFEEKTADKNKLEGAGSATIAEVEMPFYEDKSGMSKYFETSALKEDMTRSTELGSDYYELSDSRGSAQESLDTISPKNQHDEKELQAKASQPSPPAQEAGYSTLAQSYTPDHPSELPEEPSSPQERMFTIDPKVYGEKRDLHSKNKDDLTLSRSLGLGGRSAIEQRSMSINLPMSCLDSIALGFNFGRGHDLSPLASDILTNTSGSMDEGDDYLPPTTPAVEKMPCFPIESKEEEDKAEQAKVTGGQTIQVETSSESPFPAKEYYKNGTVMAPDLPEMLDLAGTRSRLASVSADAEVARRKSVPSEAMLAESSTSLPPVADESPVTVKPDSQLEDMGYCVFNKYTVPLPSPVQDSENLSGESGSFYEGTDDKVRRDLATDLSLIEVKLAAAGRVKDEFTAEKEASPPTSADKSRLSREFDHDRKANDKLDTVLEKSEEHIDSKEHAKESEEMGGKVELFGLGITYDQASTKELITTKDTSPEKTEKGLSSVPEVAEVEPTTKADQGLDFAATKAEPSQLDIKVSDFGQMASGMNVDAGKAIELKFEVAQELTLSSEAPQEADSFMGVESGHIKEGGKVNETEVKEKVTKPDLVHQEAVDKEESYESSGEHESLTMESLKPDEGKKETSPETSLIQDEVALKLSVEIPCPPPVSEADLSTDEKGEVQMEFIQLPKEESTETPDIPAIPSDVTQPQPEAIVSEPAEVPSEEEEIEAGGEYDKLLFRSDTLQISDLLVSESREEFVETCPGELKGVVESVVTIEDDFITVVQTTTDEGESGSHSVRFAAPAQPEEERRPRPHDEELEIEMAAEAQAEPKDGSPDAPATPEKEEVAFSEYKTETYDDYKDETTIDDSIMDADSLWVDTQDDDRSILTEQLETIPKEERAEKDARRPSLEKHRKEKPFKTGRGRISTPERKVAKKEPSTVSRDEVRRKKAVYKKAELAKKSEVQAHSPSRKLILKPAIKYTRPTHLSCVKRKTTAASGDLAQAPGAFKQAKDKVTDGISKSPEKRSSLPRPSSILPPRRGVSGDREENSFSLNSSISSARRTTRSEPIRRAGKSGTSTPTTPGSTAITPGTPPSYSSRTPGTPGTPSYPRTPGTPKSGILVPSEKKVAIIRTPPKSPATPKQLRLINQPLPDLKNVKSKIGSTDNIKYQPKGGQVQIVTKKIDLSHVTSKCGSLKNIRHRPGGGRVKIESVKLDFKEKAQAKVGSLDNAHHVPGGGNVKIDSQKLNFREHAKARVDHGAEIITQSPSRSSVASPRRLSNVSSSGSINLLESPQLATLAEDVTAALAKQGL
UniProt Q01768: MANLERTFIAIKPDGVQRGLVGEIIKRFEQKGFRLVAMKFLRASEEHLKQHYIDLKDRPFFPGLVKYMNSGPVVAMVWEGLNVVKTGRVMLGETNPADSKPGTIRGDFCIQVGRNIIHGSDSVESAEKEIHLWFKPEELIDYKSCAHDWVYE

These are yes or no findings as the source states them, for the method shown. Binding seen in cells or lysates may run through a third protein. Here binding means that the protein was enriched with, or labelled near, the bait; the list need not be complete.

The assay deals with Fc-glucagon (human) (UniProt P01275). Kind of assay: affinity purification with mass spectrometry; Fc-glucagon expressed in α-TC1-6 cells, captured on Protein A-Sepharose from non-ionic lysate of enriched secretory granules, overnight at 4°C; 7 M urea elution; LC-MS/MS; proteins found with Fc alone subtracted; cells in 25 or 5.5 mM glucose, with or without GABA (25 μM), insulin (100 pM) or both for 24 h.

On to “14-3-3 protein zeta/delta (from UniProt P63101 1-245)”, for which the binding result is reported as “binds”.
Consider “ATP synthase F1 subunit alpha (from UniProt Q03265 44-553)”, for which the binding result is “binds”.
To “ATPase copper transporting alpha polypeptide (from UniProt Q64430 1-1491)” belongs “binds”; to “Alpha-tubulin 2 (from UniProt P05213 1-451)”, “binds”; to Annexin A5 (from UniProt P48036 1-319), “binds”.
Consider “Fatty acid synthase (from UniProt P19096 1-2504)”, for which the binding result was “binds”.
To “Guanine nucleotide-binding protein G(I)/G(S)/G(O) subunit gamma-7 (from UniProt Q61016 1-68)” belongs “binds”.
The result for “Heat shock 70 kDa protein 1B (from UniProt P17879 1-642)” reads “binds”.
The result for “Protein disulfide-isomerase (from UniProt P09103 20-509)” reads “binds”; that for Rab2A (from UniProt P53994 1-212), “binds”.
On to RhoA (from UniProt Q9QUI0 1-193), for which the binding result is listed as “binds”.
To “glucose regulated protein 78 kDa (from UniProt P20029 20-655)” belongs “binds”; to “microtubule-associated protein 2 (from UniProt P20357 1-1828)”, “binds”; to “nucleoside diphosphate kinase A (from UniProt P15532 1-152)”, “binds”.
The result for “nucleoside diphosphate kinase B (from UniProt Q01768 1-152)” reads “binds”.
